From patent US20080227813A1, “Pharmaceutical compositions and methods for treating diseases associated with neurodegeneration” (priority 2006, published 2008)

Test system: patients with ALS
Conditions: patients receiving riluzole only
Description: A clinical trial was conducted to assess the safety and tolerability of Compound I, at three dosages (75, 150, and 300 mg/day) as compared with placebo over 12 weeks of treatment in 80 patients with ALS. It was also conducted to determine the pharmacokinetic characterization of Compound I in serum, as well as cerebrospinal fluid (CSF) penetration, in a subset of the 80 patients participating in the study. This information was correlated with safety measures.
Methodology: This study was a multicenter, double-blind, placebo-controlled study of outpatients with ALS. Eighty subjects at 8-10 centers were enrolled. Subjects received placebo, 25 mg tid, 50 mg tid or 100 mg tid Compound I daily. All 80 subjects received treatment to determine safety and tolerability after 12 weeks of daily treatment. Follow-up visits occurred at 2, 4, 6, 8, 10, 12, and 16 weeks. A subset of participants were admitted to the General Clinical Research Center (GCRC), clinical research center or other department for serum pharmacokinetic studies at Baseline and Week 4, with additional trough serum sampling at Weeks 2, 8, and 12. Cerebrospinal fluid (CSF) penetration was only be evaluated at Week 4.

Nc1nc2ccc(OC(F)(F)F)cc2s1 [riluzole, Riluzole, reference compound]
effect on average ALSFRS-R score: no effect
